Assay results reported in PMC6020293, “In Vitro Reconstitution of Functional Type III Protein Export and Insights into Flagellar Assembly” (mBio, 2018).
Results are given in words; binding and its absence hold for the method and conditions named. Some results given as binding are weak or reduced against the parent protein; the word gives no strength.

Sequences of proteins named here, by UniProt entry; tags and fusion partners are left off.
UniProt P26465: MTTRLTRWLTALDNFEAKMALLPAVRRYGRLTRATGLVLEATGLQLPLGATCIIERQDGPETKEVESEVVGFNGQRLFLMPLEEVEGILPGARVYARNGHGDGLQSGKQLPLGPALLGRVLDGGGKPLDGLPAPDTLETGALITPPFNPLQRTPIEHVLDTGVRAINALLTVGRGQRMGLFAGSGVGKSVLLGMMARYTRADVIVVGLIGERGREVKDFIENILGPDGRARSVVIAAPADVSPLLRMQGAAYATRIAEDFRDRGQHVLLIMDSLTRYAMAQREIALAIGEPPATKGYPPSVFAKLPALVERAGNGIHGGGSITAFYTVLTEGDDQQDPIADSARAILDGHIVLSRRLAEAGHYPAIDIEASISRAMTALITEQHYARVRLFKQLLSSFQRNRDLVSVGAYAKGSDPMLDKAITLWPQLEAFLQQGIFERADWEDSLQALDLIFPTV

T1: FliH (Salmonella) (UniProt P15934)
T1 sequence: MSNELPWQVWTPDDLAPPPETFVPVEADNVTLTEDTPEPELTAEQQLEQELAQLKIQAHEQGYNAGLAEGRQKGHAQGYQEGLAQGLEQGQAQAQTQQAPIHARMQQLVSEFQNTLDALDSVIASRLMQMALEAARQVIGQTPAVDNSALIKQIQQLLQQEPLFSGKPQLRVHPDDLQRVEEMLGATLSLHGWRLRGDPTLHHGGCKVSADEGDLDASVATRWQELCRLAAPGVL


Target: T1, FliH (Salmonella)
Test: co-purification (Ni affinity, then SEC); cells expressing the FliH2/FliI complex lysed in 50 mM Tris-HCl pH 8.0, 500 mM NaCl; HisTrap HP or Ni-NTA agarose, imidazole elution; His tag retained; Superdex 200 in 20 mM Tris-HCl pH 7.5, 125 mM KCl

| Molecule | binding |
| --- | --- |
| FliI (from UniProt P26465 1-456) (enzyme) | binds |
| FliH (protein, UniProt P15934 1-235) MSNELPWQVWTPDDLAPPPETFVPVEADNVTLTEDTPEPELTAEQQLEQELAQLKIQAHEQGYNAGLAEGRQKGHAQGYQEGLAQGLEQGQAQAQTQQAPIHARMQQLVSEFQNTLDALDSVIASRLMQMALEAARQVIGQTPAVDNSALIKQIQQLLQQEPLFSGKPQLRVHPDDLQRVEEMLGATLSLHGWRLRGDPTLHHGGCKVSADEGDLDASVATRWQELCRLAAPGVL | binds |
